# Test results taken from PMC5813253.
# Amino acid sequences for entries named in this document (tags omitted).
# UniProt P72350: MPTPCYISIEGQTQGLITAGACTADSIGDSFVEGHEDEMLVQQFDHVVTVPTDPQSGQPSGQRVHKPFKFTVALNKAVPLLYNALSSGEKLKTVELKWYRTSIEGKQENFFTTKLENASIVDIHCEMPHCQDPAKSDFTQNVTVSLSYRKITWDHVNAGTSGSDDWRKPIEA
# No constants are given. Whether binding was seen depends on the method and setting. Some results given as binding are weak or reduced against the parent protein; the word gives no strength.
# Target: Hcp (V. cholerae) (UniProt P72350)
# Assay: cryo-EM structure
substance,measurement,value
Hcp (from UniProt P72350 1-172),binding,binds
